# From paper PMC7819943, “Rice protein-binding microarrays: a tool to detect cis-acting elements near promoter regions in rice”
# The chains behind the UniProt entries cited, without tags or fusion partners.
# UniProt Q0JBA9, entry or part of it: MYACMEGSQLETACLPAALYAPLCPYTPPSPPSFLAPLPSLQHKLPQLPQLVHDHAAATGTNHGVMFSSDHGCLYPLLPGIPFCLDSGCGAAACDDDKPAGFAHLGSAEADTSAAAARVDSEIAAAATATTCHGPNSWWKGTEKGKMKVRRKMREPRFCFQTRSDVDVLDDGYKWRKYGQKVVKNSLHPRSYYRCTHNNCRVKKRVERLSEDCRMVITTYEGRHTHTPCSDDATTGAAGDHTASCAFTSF
# Some of the results follow.
# Target: OsWRKY34 (Oryza sativa, UniProt Q0JBA9 1-250)
# Assay: protein-binding microarray (RPBM); PBS, 2% BSA, 51.3 ng/ul salmon testes DNA, 50 uM zinc acetate, 200 nM TF, 25 C, 1 h; high values mean tight binding
# Conditions: protein: recombinant; tags: N-terminal polyhistidine and DsRed monomer fusion (pET32a); label: CyDye5-dUTP incorporated in the synthesized complementary strand; 3' TTTTT single-stranded linker to array surface; dsDNA, one strand shown
# Outline: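 Per-feature fluorescence intensity (arbitrary units), read on an Axon 4000B scanner, is the binding signal. Transcription factors carrying an N-terminal polyhistidine tag and DsRed fusion were expressed in E. coli BL21-CodonPlus and purified on Ni–NTA. A custom Agilent array, made double-stranded by primer extension with Cy5-dUTP and blocked with 2% BSA, was incubated with 200 nM protein in PBS, 2% BSA, salmon testes DNA and 50 µM zinc acetate at 25 °C for 1 h and then washed.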
row,Sequence,binding signal
1,CTGTGTCTTTCGTTTTTCTTTTTTAAAAAAACACATGCTACGGAGTCACCTAGTGCAG,9680 fluorescence intensity (a.u.)
2,ACATTTTAAGTTTTTTATACTATGCATATTGTTTTAGTGCCGGAGTCACCTAGTGCAG,8400 fluorescence intensity (a.u.)
3,CGATGCTTCGATCCCGCGCCGACCTCGATCCGCATTAACTCGGAGTCACCTAGTGCAG,8490 fluorescence intensity (a.u.)
4,CGTGAGTGCTGCCCACTTATTTTTCCTTTACGCAACAACACGGAGTCACCTAGTGCAG,9110 fluorescence intensity (a.u.)
5,TCAACAAATAGTTTCACTCATCACTCATTAACTCATTCTTCGGAGTCACCTAGTGCAG,8300 fluorescence intensity (a.u.)
6,ACAACTTTCCCATTTGAAATCATTTACTACCCGAAAAATTCGGAGTCACCTAGTGCAG,8090 fluorescence intensity (a.u.)
7,CCTTCCTACGTGGCCTCCGGCCCCACCTCCCGCCCGTTGCCGGAGTCACCTAGTGCAG,8620 fluorescence intensity (a.u.)
8,AATCCGCATCATCAGAAGAATATGATATATTCTGTCAAACCGGAGTCACCTAGTGCAG,8880 fluorescence intensity (a.u.)
9,TTTCTCAACTTTTTCTTAATGTTCTCGTGTTTTATTTCCGCGGAGTCACCTAGTGCAG,12200 fluorescence intensity (a.u.)
10,TCTGATTTGCTTCCTCCGCGAACCGGTCGTCTTCTCCAGCCGGAGTCACCTAGTGCAG,8780 fluorescence intensity (a.u.)
11,ACCCCATCGGCCATATGCTCATTTCCTAGCTGATATTGCACGGAGTCACCTAGTGCAG,12400 fluorescence intensity (a.u.)
12,AGTTCCTGCCTAATTGACTTACGCTGACTCTGTCAATATCCGGAGTCACCTAGTGCAG,8710 fluorescence intensity (a.u.)
13,TCTCTGCTTCTCGTTGTTCTTGGTTGGTTGTTGTTGTAGACGGAGTCACCTAGTGCAG,19400 fluorescence intensity (a.u.)
14,GTACGTGCTTGTGGCTTATTGGGCCTGGTCCTGATTGGACCGGAGTCACCTAGTGCAG,11100 fluorescence intensity (a.u.)
15,GGTGGTGGTGGTGGTGGATCGGGTGGCTTTGGCTGAGATGCGGAGTCACCTAGTGCAG,18100 fluorescence intensity (a.u.)
16,ATATGTAATTTGTTTTGTTTTAGTCTACGTTTAATAGTTCCGGAGTCACCTAGTGCAG,8250 fluorescence intensity (a.u.)
17,TGATGCCGGATTGCCAATGGGGTTGGGTTGGTCTGAATGACGGAGTCACCTAGTGCAG,10700 fluorescence intensity (a.u.)
18,TTTCAGCTCCATCAAGGTGTTCTCCACCATTGACATCTCCCGGAGTCACCTAGTGCAG,8140 fluorescence intensity (a.u.)
19,TCCTTACCATCACTGTCACCTTCCCTAGACACAACCGCCACGGAGTCACCTAGTGCAG,9800 fluorescence intensity (a.u.)
20,CTACTCCCTCCATTTCGAAATGTTTGACACCGTTGACTTTCGGAGTCACCTAGTGCAG,13900 fluorescence intensity (a.u.)
21,GTGGTGGAACTAGGGTTTTTGCAATCTCAATCTCAATTCCCGGAGTCACCTAGTGCAG,9100 fluorescence intensity (a.u.)
22,GCTTCCAAGGAATTTCTGGTTTGTACGCCTTATGCCTGAACGGAGTCACCTAGTGCAG,9080 fluorescence intensity (a.u.)
23,ACATGGTCTTTTGTTTTATATTTGGCACTTCTAATATATCCGGAGTCACCTAGTGCAG,9640 fluorescence intensity (a.u.)
24,ACCCTAAAATTTGTGTCTGGACTATTTTCTCATCCAATCCCGGAGTCACCTAGTGCAG,8980 fluorescence intensity (a.u.)
25,ATGTTGTCGTGTATCATTTGTTTTTCTTATGTTATTTTCTCGGAGTCACCTAGTGCAG,10700 fluorescence intensity (a.u.)
26,AAACCAACCCCACCCAACCCACGCGAGAACCGTGGACCACCGGAGTCACCTAGTGCAG,9500 fluorescence intensity (a.u.)
27,GCCCTCGCCGTCGTCTCGTCTCGTCTCGCCCGCCTCCATGCGGAGTCACCTAGTGCAG,10100 fluorescence intensity (a.u.)

row,Sequence,binding signal
1,GAGGAGGGGATTGGGTGCTTGGAAAGCATGGCGCGGCAGTCGGAGTCACCTAGTGCAG,8850 fluorescence intensity (a.u.)
2,CAGACCTGGAGGTTGTTGCCCTTGATGTGCGCCCAGATGACGGAGTCACCTAGTGCAG,8470 fluorescence intensity (a.u.)
3,GTCAATTTCCTCAGGACCTATCCTGAACTCGCGTAGCGATCGGAGTCACCTAGTGCAG,8310 fluorescence intensity (a.u.)
4,TTCCTTTCTTTGTGTGTTTTTAAGTTATAAAGTGAACTTGCGGAGTCACCTAGTGCAG,10000 fluorescence intensity (a.u.)
5,TTTCGGTTCATGTGCCACGATTGATCTACTCGATTGATATCGGAGTCACCTAGTGCAG,8860 fluorescence intensity (a.u.)
6,CTTATAGGTCGTGTTGTGACCTGGCTTGCCACACCTAGATCGGAGTCACCTAGTGCAG,8210 fluorescence intensity (a.u.)
7,TGTGACTCTACATCAAACAATATCCATTTAAGTTTTTTTCCGGAGTCACCTAGTGCAG,8450 fluorescence intensity (a.u.)
8,CTCGCCGCCGCCGCTCTTTGCTTCTGCACGTAGCATCCTCCGGAGTCACCTAGTGCAG,12200 fluorescence intensity (a.u.)
9,TCTACTTTTCTCCACTCTTTTGCTATAGGGGCTGGGGTGGCGGAGTCACCTAGTGCAG,14200 fluorescence intensity (a.u.)
10,AATTATATTGTCTAGCTATTTTACATGTTATTTCTACTATCGGAGTCACCTAGTGCAG,10800 fluorescence intensity (a.u.)
11,AAGCTTGGATTAGGTTGGTTGTGCGATGTGTATCTAAAGACGGAGTCACCTAGTGCAG,10700 fluorescence intensity (a.u.)
12,AGACCTAATTACCACTACAGCCGCGACCTCGATTTTGTTTCGGAGTCACCTAGTGCAG,8260 fluorescence intensity (a.u.)
13,GATTAGGGTTGTTGCCGGGGTTTGTTTGGTGTTGCGGCGGCGGAGTCACCTAGTGCAG,8510 fluorescence intensity (a.u.)
14,CAATCTTGCCTTTTTCTTCTTGCTCATCGGTGGCCAATGCCGGAGTCACCTAGTGCAG,9990 fluorescence intensity (a.u.)
15,CGCACGGCCCCGTACCCGCGACCACCACCACCCGCCGCCGCGGAGTCACCTAGTGCAG,9300 fluorescence intensity (a.u.)
16,TTAATTGCTATGTTTTGACCAGTCAACGCATAGGTCGTTTCGGAGTCACCTAGTGCAG,9120 fluorescence intensity (a.u.)
17,GACTATACTACTTGAACTGTTGATTTATGCCATCATAATTCGGAGTCACCTAGTGCAG,9820 fluorescence intensity (a.u.)
18,GAAATTTTTTGTTTCCATCCTTGGCTTGACTTTTAGAAGACGGAGTCACCTAGTGCAG,9730 fluorescence intensity (a.u.)
19,ACACCCTATTGTCAGCATCGTGAGATCATTATCTTTCTAACGGAGTCACCTAGTGCAG,11600 fluorescence intensity (a.u.)
20,TGCACTGTTTTTAGTGGATTTCTATGCTTGCTTTGTCCTCCGGAGTCACCTAGTGCAG,8520 fluorescence intensity (a.u.)
21,TTTTTTTCTCTTGTCCTTTCTCCACCGTTCTTCTCGTTCACGGAGTCACCTAGTGCAG,11000 fluorescence intensity (a.u.)
22,GACCGGATTATTTTCACCTGCATGAGATCTTACGCCTACCCGGAGTCACCTAGTGCAG,9390 fluorescence intensity (a.u.)
23,TCTCTTATCTTCTTTTTCGCTTTTCTTCTTCTCTTTTCTCCGGAGTCACCTAGTGCAG,9800 fluorescence intensity (a.u.)
24,AGTGAGGCGACAATGGCTCGTGGAGGGTGGGAGCAGTGGACGGAGTCACCTAGTGCAG,9270 fluorescence intensity (a.u.)
25,AGATTGCTTTTCTTACAAGGACGACGCTAACAATAACATCCGGAGTCACCTAGTGCAG,9110 fluorescence intensity (a.u.)
26,ACCCTCTCGCTTTTATGCTTACGCTTTTCAAACGGCTAAACGGAGTCACCTAGTGCAG,9210 fluorescence intensity (a.u.)
27,CTTAAAGGGTGGTACTTGGGTGGGAGTGCGTGGTTAGCTACGGAGTCACCTAGTGCAG,8430 fluorescence intensity (a.u.)

# Rewritten tab-delimited: entries from further up
row	Sequence	binding signal
12	AGTTCCTGCCTAATTGACTTACGCTGACTCTGTCAATATCCGGAGTCACCTAGTGCAG	8710 fluorescence intensity (a.u.)
11	AAGCTTGGATTAGGTTGGTTGTGCGATGTGTATCTAAAGACGGAGTCACCTAGTGCAG	10700 fluorescence intensity (a.u.)
23	TCTCTTATCTTCTTTTTCGCTTTTCTTCTTCTCTTTTCTCCGGAGTCACCTAGTGCAG	9800 fluorescence intensity (a.u.)
